Laboratory results as given in patent US20260201015A1.
Results are given in words; binding and its absence hold for the method and conditions named. Some entries that bind do so weakly or less than the wild type.

Chains of the proteins cited; added tags and fusions are not shown. Residues count along the entry.
UniProt P12272, residues 37-70: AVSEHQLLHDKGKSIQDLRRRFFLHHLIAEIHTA

Molecular target: PTH related peptide (PTHrp) (UniProt P12272)
Test: fluorescence polarization

B1: PTH_B10 (RFjoint), inpainted PTH binder, SEQ ID NO: 2 (designed binder)
chain: SFELLEKLIELSKELYEVAKKYIETGDPELKKKLEEILKKIEEAYKELLESDAHPLEKALAKLILAEAYVVKSFAYISSGKDLEKAQEYLDKAKEILEELLKLLEELKKEETDPEKLEIIEELEKIAEELLKEIEE
For B1, the binding was “binds”.
